# Measurements taken from patent publication EP0821003B1 (Aventis Pharma Ltd., priority 1995, dated 2003).
# Assay: solid-phase peptide synthesis
# Conditions: whole synthesis, 215 nm
row,Substance,final HPLC purity [%]
1,PEPTIDE1{A.A.L.T.F.G.K.G}$$$$V2.0,98.1
2,PEPTIDE1{A.K.A.T.F.G.K.G}$$$$V2.0,98.2
3,PEPTIDE1{A.K.L.A.F.G.K.G}$$$$V2.0,97.5
4,PEPTIDE1{A.K.L.T.A.G.K.G}$$$$V2.0,98.6
5,PEPTIDE1{A.K.L.T.F.A.K.G}$$$$V2.0,98.2
6,PEPTIDE1{A.K.L.T.F.G.A.G}$$$$V2.0,97.6
7,PEPTIDE1{A.K.L.T.F.G.K.A}$$$$V2.0,97.5
8,PEPTIDE1{A.K.L.T.F.G.K.G.T}$$$$V2.0,100
9,PEPTIDE1{A.K.L.T.F.G.K.G}$$$$V2.0,97.9
10,PEPTIDE1{K.L.T.F.G.K.G}$$$$V2.0,100
11,PEPTIDE1{[ac].A.K.L.T.F.G.K.G.T}$$$$V2.0,98.8
12,PEPTIDE1{[ac].[dA].[dK].[dL].[dT].[dF].G.[dK].G.[dT].[am]}$$$$V2.0,98.4
13,PEPTIDE1{[ac].[dA].[dK].[dL].[dT].[dF].G.[dK].G.[dT]}$$$$V2.0,98.5
14,PEPTIDE1{[dA].[dK].[dL].[dT].[dF].G.[dK].G.[dT]}$$$$V2.0,99.6

# Some peptides are written in HELM: one residue between dots, names in brackets for other building blocks, links after the first $.
